These are yes or no findings as the source states them, for the method shown. In cells and extracts the contact can be indirect. Some entries that bind do so weakly or less than the wild type. Where a sequence is shown, tags or fusion partners need not be part of it.
Key:
[1] = target: T1, FLAG-tagged UBXD1 (human (amplified from HeLa cell cDNA)) (UniProt Q9BZV1); experiment: co-IP; IP with Anti-FLAG M2 Affinity Gel under native conditions from TorsinKO HeLa cells co-expressing MLF2-HA and a FLAG-tagged construct for 24 h; NET buffer (150 mM NaCl, 50 mM Tris pH 7.4, 0.5% NP-40) with 5 mM NEM; immunoblot against FLAG and HA
T1 sequence: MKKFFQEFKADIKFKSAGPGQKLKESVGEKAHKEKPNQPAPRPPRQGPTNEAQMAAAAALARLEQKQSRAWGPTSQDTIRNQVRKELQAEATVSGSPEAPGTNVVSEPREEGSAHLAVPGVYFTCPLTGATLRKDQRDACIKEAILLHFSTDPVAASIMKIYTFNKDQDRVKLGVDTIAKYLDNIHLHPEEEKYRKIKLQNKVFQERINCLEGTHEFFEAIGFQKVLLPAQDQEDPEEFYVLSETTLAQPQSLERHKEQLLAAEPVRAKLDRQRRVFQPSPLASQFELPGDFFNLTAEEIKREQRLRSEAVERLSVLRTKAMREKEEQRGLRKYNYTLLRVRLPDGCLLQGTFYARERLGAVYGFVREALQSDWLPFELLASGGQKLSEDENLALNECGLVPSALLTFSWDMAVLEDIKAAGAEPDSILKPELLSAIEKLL

By UniProt entry, the sequences of proteins in these tests, tags left out.
UniProt Q5VVQ6: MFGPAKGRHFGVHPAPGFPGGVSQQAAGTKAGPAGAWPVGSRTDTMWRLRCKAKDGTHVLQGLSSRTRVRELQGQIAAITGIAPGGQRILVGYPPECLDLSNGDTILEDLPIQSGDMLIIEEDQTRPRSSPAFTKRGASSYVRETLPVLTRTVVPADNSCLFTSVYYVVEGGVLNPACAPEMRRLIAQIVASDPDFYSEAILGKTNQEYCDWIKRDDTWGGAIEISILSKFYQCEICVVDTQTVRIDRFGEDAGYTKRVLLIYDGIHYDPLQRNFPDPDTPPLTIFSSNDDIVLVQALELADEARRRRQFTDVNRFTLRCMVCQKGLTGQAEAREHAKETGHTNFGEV

WT YOD1-FLAG = WT YOD1-FLAG (UniProt Q5VVQ6); experiment: as above

binding [1]: binds
binding (WT YOD1-FLAG): binds
B1: myeloid leukemia factor 2 (MLF2), HA-tagged (protein, UniProt Q15773 1-248)
chain: MFRFMRDVEPEDPMFLMDPFAIHRQHMSRMLSGGFGYSPFLSITDGNMPGTRPASRRMQQAGAVSPFGMLGMSGGFMDMFGMMNDMIGNMEHMTAGGNCQTFSSSTVISYSNTGDGAPKVYQETSEMRSAPGGIRETRRTVRDSDSGLEQMSIGHHIRDRAHILQRSRNHRTGDQEERQDYINLDESEAAAFDDEWRRETSRFRQQRPLEFRRLESSGAGGRRAEGPPRLAIQGPEDSPSRQSRRYDW

Source: PMC9100061
